## Library screen at single concentrations

Data taken from ChEMBL document CHEMBL3988442, “University of Dundee, Small-Polar-MMV Screening Library” (2021).

Mtb glucose medium: 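Whole-cell growth test on Mycobacterium tuberculosis, read after 3 days in glucose-containing 7H9 medium; the read-out is not stated. Tested at 50 µM. Higher reads as more growth inhibition (inferred: compounds with an IC50 in retests scored well above the rest). About 69,000 compounds were tested under these conditions; 1.1% (about 760) showed 50% or more at least once.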
Mtb cholesterol medium: 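Phenotypic screen: M. tuberculosis growth, cholesterol and DPPC medium, 4 days; the read-out is not stated. Compounds at 50 µM. Direction is inferred from retests: higher values go with more growth inhibition. About 69,000 compounds were tested under these conditions; 0.54% (about 370) showed 50% or more at least once.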

The filed quantity is “Percent Effect” (%).
The record does not define 0% and 100%; most values in the screen are far below 50% and negative numbers occur (in some assays of this library far below -100).
This is an unselected part of the compounds tested.
Two or more numbers in one place are separate tests of the same structure; such repeats can differ widely.

Result for Cc1ncoc1C(=O)N1CCn2c(COCC3CC3)cnc2C1C (configuration not stated) was Mtb glucose medium: 3.198%; Mtb cholesterol medium: -20.4%. For O=C(O)C(F)(F)F.O=C(O)C(F)(F)F.[H][C@]12C[C@@H](CN3CCCC3)N(C)[C@@]1([H])CCN(C(=O)c1cccn1C)C2 the result was Mtb glucose medium: -24.48%; Mtb cholesterol medium: 117.3%. Result for CN1CCC(n2nc(Cc3cccc(Cl)c3)nc2Cn2cnnn2)CC1 was Mtb glucose medium: 19.58%; Mtb cholesterol medium: -12.49%. Result for Cc1nc(C2CCCN(C(=O)COCc3ccccc3)C2)no1 (configuration not stated) was Mtb glucose medium: -22.56%; Mtb cholesterol medium: -4.115%. With CC(C)c1noc(CN(C)C(c2ccc(F)cc2)c2cccnc2)n1 (configuration not stated) the screen gave Mtb glucose medium: -14.76% and -0.1819%; Mtb cholesterol medium: -7.009%. O=C(NCc1ccc2c(c1)CCCO2)C1CNCCO1 (configuration not stated) gave Mtb glucose medium: -7.754%; Mtb cholesterol medium: 2.532%. COc1cc(CCC(=O)NCC2CCCN2C)ccc1OCC(F)(F)F (configuration not stated) read Mtb glucose medium: 21.76%; Mtb cholesterol medium: 0.003323%.

Cn1nnnc1SCCNC(=O)c1cccc2ccnn12 read Mtb glucose medium: -54.81%; Mtb cholesterol medium: -39.43%. For COc1cccc(CCC(=O)N2CCC[C@@H](N)[C@@H]2c2ccccc2F)c1.Cl the result was Mtb glucose medium: 9.174%; Mtb cholesterol medium: -4.835% and -3.974%. O=C(CN1CCCC1Cn1cncn1)Nc1ccc(Cl)cn1 (configuration not stated) gave Mtb glucose medium: 6.496%; Mtb cholesterol medium: 25.84%. O=C(Cc1cccc(Cl)c1)N[C@@H]1CCNC[C@H]1O gave Mtb glucose medium: 7.96%; Mtb cholesterol medium: -6.745%. Cc1cnc(NC(=O)c2ccc(-n3ncc(C#N)c3N)cc2)s1 gave Mtb glucose medium: 8.011%; Mtb cholesterol medium: -0.8511%. Result for CN1CCC(Cc2nc(-c3ccnn3C)n(Cc3ccccc3)n2)CC1 was Mtb glucose medium: -67.25%; Mtb cholesterol medium: -53.45%. Result for O=C(C1CC(=O)N(c2n[nH]c3cc(Br)ccc23)C1)N1CCSCC1 (configuration not stated) was Mtb glucose medium: 7.587%; Mtb cholesterol medium: -8.79%.

With CC(=O)N1CCCn2nc(CNS(=O)(=O)c3cc(C)cs3)cc2C1 the screen gave Mtb glucose medium: -28.83%; Mtb cholesterol medium: -2.823%. C[C@H](O)c1cnn(-c2ccccc2)c1 read Mtb glucose medium: 2.095%; Mtb cholesterol medium: 5.773%. CC(C)NC(=O)N1CCN(Cc2ccccn2)CC2(CC(=O)N(C)C2)C1.O=C(O)C(F)(F)F.O=C(O)C(F)(F)F (configuration not stated) gave Mtb glucose medium: -18.19%; Mtb cholesterol medium: -12.56%. Cc1ncc(-c2ccnc(SCCN(C)C)n2)c(-c2ccco2)n1 gave Mtb glucose medium: -25.51%; Mtb cholesterol medium: -17.09%. For O=C(O)C(F)(F)F.O=C(O)C(F)(F)F.O=C(O)C(F)(F)F.[H][C@@]12CCN(Cc3cccnc3)C[C@]1([H])[C@@H](CNc1ncccn1)OC2 the result was Mtb glucose medium: -5.965%; Mtb cholesterol medium: -26.39%. O=C(c1cc(COc2ccc3c(c2)OCO3)[nH]n1)N1CCCCO1 read Mtb glucose medium: 32.3%; Mtb cholesterol medium: 17.13% and 47.54%. Cc1cccc(C(=O)N2CCCC2)c1NCC(=O)NC(C)(C#N)C1CC1 (configuration not stated) gave Mtb glucose medium: -25.8%; Mtb cholesterol medium: -31.28%.

COCCNc1c(-c2ccc(Cl)cc2)c(=O)c1=O read Mtb glucose medium: 28.4%; Mtb cholesterol medium: 21.09%. For Cc1ccc(N(Cc2ccco2)C(=O)CC2=NN(C)C(=O)C2)cc1 the result was Mtb glucose medium: 14.21%; Mtb cholesterol medium: 11.79%. Result for N#Cc1cccc(NC(=O)N[C@H](CO)Cc2ccc(O)cc2)c1 was Mtb glucose medium: 4.58% and -3.399%; Mtb cholesterol medium: 12.12%. Result for CCc1nnc2n1CCN(C(=O)c1cnc(-c3cccs3)s1)C2 was Mtb glucose medium: 26.46%; Mtb cholesterol medium: 10.28%. For CC(C)n1ccc(-c2cc(C(=O)N3CCCC3)c3ccccn23)n1 the result was Mtb glucose medium: -14.84%; Mtb cholesterol medium: -51.84%. Result for CCOC(C)c1noc(CN2CCN(c3ccncc3)CC2)n1 (configuration not stated) was Mtb glucose medium: 11.47%; Mtb cholesterol medium: 14.83%. Cn1ccnc1CC1CCCN(C(=O)NCCOc2cccnc2)C1 (configuration not stated) gave Mtb glucose medium: 24.87%; Mtb cholesterol medium: 13.04%.

With CN(CCC#N)C(=O)CN1CCCN(Cc2noc(C3CC3)n2)CC1 the screen gave Mtb glucose medium: 1.953% and -10.8%; Mtb cholesterol medium: -12.6%.